Source: article PMC8894350, “Mechanism of cooperative N-glycan processing by the multi-modular endoglycosidase EndoE” (Nature Communications, 2022)
These are yes or no findings as the source states them, for the method shown.

Molecular target: EndoE (residues 56-837) (Enterococcus faecalis) (UniProt Q6U890)
Experiment: SEC-SAXS; in-line size-exclusion chromatography SAXS, Shodex KW403-4F column, 50 uL of protein at 10 mg mL^-1 injected, 50 mM Tris-HCl pH 7.5, 100 mM NaCl, 2% v/v glycerol; both purified

B1: EndoE (residues 56-837) (enzyme, UniProt Q6U890 56-837)
chain: NEPTQEKHFMVYYRAWRDKTMQGVNTTLPDENWLTMHDIPYGIDIVNVFSYVPKGQEALAQPFYDTLKNEYAPALHARGVRLVRGIDYSELLKVPYAGTTPTEAEFDAYAKELLTKFVDDLGIDGLDIDMETRPSEKDIVLSNGVIRALSKYIGPKSGTDRPFLYDTNAEYLPPLQDVSDCFDFLAYQQYGSDDQRTQRALNNLSPVLNGERFVPGLTFPEEQDRNRWYDTKEPYMESNMYKVARYSYENNLGGMFLYALDRDGRTYNEDDLNQIKPSNLLWTKTAIAESKGVSLAEMKAAAQHYLKRISYANTDLEAQNKAAEAVTQATTLYDVNKAILGGDYGQGLSNTYDAELEKGLLAIDLTTLYRALDQAVAAIEKAESYTPETIQALQTTKESVATELAGKTYTAAQVTTWQTEVQTALDNLKEKQTQPLKSVFSIDAGRKYFSVEQLEELVAKASQNGYTDVQLILGNDGLRFILDDMSVNVNGKKYNHNRVSKAIQRGNNAYYNDPNGNALTQKEMDRLLAFAKARNINIIPVINSPGHMDALLVAMEKLAIKNPAFDGSKRPVDLGNQKAVNFTKAIISKYVAYFSAHSEIFNFGGDEYANDVDTGGWAKLQSSGRYKDFVAYANDLAKIIKDAGMQPMSFNDGIYYNSDDSFGTFDPEIIISYWTAGWSGYDVAKPEYFVQKGHKIFNTNDAWYWVAGNVDSGIYQYDDALANMSKKAFTDVPAGSPNLPIIGSIQCVWYDDPRRDYDFERIYTLMDTFSENYREYMVVKNH
Q: Which binding does the source give for B1 here?
A: The binding was “no binding (tested: 10 mg mL^-1 injected)”.
